Values from PubChem BioAssay AID1159584 (Peter MacCallum Cancer Centre, 2016)
Purpose: 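Genes that CDH1-null MCF10A cells selectively depend on to survive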 (primary screen). System: human MCF10A breast epithelial cells, parental and CDH1-null. Reagent: siRNA against human genes. Measurement: 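ATP luminescence (CellTiter-Glo) viability per line relative to mean mock wells over all plates, and the ratio of CDH1-null to parental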. Direction: CDH1-null / parental viability ratio: higher = CDH1-null cells survive relatively better than parental.
Here is one part, drawn at random, of about 18,000 deposited reagents. Not all columns of the deposit are shown. Not given: the amount of reagent, the time to read-out.

For ABHD16A (GeneID 7920), the entry reads CDH1-null / parental viability ratio 1.1. Against TOX (GeneID 9760), the values are CDH1-null / parental viability ratio 1.11. HAMP (GeneID 57817) gave CDH1-null / parental viability ratio 1.06. For KRT25 (GeneID 147183), the values are CDH1-null / parental viability ratio 0.97. With knock-down of CUEDC2 (GeneID 79004), the screen gave CDH1-null / parental viability ratio 1.36. Silencing of RGS22 (GeneID 26166) gave: CDH1-null / parental viability ratio 1.11.

RACGAP1 (GeneID 29127) gave CDH1-null / parental viability ratio 1.08. With knock-down of CKB (GeneID 1152), the screen gave CDH1-null / parental viability ratio 0.97. DNAJC5B (GeneID 85479) gave CDH1-null / parental viability ratio 0.88. Knock-down of CD34 (GeneID 947) gave: CDH1-null / parental viability ratio 1.01. HLA-DMA (GeneID 3108) scored CDH1-null / parental viability ratio 0.89. After knock-down of TCF23 (GeneID 150921) the results were CDH1-null / parental viability ratio 0.91.

FSCN3 (GeneID 29999) showed CDH1-null / parental viability ratio 0.86. With knock-down of ZNF300 (GeneID 91975) the results were CDH1-null / parental viability ratio 1.33. With knock-down of MGLL (GeneID 11343), the record shows CDH1-null / parental viability ratio 1.16. After knock-down of MYRFL (GeneID 196446), the record shows CDH1-null / parental viability ratio 1.03. For TRPM2 (GeneID 7226) the deposit lists CDH1-null / parental viability ratio 1.28.

3 of these entries, reformatted.
{"target gene": "DNAJC5B (GeneID 85479)", "CDH1-null / parental viability ratio": 0.88}
{"target gene": "CD34 (GeneID 947)", "CDH1-null / parental viability ratio": 1.01}
{"target gene": "HLA-DMA (GeneID 3108)", "CDH1-null / parental viability ratio": 0.89}

Next results:
Against HOXB4 (GeneID 3214), the entry reads CDH1-null / parental viability ratio 1.19. DNAJB2 (GeneID 3300) scored CDH1-null / parental viability ratio 1.22. After knock-down of QTMAN (GeneID 79712), the record shows CDH1-null / parental viability ratio 0.6. For ZFYVE21 (GeneID 79038) the deposit lists CDH1-null / parental viability ratio 0.79. For MRNIP (GeneID 51149), the entry reads CDH1-null / parental viability ratio 1.1. CSNK1A1 (GeneID 1452) showed CDH1-null / parental viability ratio 0.89.

For SUMF2 (GeneID 25870), the values are CDH1-null / parental viability ratio 1.33. After knock-down of ERF (GeneID 2077), the screen gave CDH1-null / parental viability ratio 0.89. For CINP (GeneID 51550) the deposit lists CDH1-null / parental viability ratio 0.77. Depletion of KRT76 (GeneID 51350) gave: CDH1-null / parental viability ratio 0.95. INPP4A (GeneID 3631) showed CDH1-null / parental viability ratio 1.52. Depletion of MAGEA1 (GeneID 4100) gave: CDH1-null / parental viability ratio 0.87.

Knock-down of EXOG (GeneID 9941) came out at: CDH1-null / parental viability ratio 0.74. Silencing of GNS (GeneID 2799) came out at: CDH1-null / parental viability ratio 1.12. GATD1 (GeneID 347862) scored CDH1-null / parental viability ratio 0.89. After knock-down of LMAN2 (GeneID 10960), the screen gave CDH1-null / parental viability ratio 1. Depletion of MRPS9 (GeneID 64965) came out at: CDH1-null / parental viability ratio 0.8. For FARP1 (GeneID 10160), the values are CDH1-null / parental viability ratio 1.85.
